Measured values: the supplement of paper PMC10849652
This is one part of the list.

Protein sequences, listed by entry. Tags and fused reporters are not part of them. Lines headed by an entry give the natural chain unless they say otherwise; changes in a name come on top.
UniProt Q9UNA0: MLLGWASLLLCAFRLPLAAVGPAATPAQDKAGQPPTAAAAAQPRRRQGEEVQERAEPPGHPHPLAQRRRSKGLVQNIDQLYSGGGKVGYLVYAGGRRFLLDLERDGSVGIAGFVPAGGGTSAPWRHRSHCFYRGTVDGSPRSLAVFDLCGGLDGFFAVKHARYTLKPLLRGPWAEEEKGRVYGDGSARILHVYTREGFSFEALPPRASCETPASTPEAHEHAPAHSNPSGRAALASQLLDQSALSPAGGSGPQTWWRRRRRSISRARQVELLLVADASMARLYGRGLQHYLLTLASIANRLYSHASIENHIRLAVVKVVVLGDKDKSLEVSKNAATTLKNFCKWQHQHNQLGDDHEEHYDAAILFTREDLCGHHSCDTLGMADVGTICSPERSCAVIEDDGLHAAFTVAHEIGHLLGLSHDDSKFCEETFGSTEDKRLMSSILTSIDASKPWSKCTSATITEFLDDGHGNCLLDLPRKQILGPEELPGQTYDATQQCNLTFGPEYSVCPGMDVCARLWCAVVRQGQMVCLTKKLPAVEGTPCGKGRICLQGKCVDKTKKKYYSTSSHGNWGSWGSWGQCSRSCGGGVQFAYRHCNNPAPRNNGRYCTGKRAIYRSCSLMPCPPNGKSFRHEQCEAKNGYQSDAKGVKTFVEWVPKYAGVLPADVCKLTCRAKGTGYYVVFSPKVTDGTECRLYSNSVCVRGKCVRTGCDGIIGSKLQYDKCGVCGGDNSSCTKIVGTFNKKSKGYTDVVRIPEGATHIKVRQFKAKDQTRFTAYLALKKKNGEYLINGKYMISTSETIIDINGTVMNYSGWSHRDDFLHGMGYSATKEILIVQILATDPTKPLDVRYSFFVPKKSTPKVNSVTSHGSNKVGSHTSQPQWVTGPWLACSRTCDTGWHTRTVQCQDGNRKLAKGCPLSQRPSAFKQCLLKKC
UniProt P52594: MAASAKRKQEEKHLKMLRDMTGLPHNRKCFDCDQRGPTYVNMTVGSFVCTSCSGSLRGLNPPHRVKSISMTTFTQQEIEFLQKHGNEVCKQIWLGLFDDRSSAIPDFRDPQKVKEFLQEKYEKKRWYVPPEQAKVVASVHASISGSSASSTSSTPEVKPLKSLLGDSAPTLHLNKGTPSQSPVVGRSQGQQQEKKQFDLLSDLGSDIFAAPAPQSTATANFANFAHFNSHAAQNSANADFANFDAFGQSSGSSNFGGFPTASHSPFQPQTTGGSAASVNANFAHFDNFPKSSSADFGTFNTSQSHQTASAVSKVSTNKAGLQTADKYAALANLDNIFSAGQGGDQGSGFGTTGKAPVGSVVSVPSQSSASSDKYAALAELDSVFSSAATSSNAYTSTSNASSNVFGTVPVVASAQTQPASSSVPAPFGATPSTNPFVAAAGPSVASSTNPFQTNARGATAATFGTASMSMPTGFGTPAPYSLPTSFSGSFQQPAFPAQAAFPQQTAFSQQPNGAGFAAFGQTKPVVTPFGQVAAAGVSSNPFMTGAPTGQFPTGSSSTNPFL
UniProt P55265: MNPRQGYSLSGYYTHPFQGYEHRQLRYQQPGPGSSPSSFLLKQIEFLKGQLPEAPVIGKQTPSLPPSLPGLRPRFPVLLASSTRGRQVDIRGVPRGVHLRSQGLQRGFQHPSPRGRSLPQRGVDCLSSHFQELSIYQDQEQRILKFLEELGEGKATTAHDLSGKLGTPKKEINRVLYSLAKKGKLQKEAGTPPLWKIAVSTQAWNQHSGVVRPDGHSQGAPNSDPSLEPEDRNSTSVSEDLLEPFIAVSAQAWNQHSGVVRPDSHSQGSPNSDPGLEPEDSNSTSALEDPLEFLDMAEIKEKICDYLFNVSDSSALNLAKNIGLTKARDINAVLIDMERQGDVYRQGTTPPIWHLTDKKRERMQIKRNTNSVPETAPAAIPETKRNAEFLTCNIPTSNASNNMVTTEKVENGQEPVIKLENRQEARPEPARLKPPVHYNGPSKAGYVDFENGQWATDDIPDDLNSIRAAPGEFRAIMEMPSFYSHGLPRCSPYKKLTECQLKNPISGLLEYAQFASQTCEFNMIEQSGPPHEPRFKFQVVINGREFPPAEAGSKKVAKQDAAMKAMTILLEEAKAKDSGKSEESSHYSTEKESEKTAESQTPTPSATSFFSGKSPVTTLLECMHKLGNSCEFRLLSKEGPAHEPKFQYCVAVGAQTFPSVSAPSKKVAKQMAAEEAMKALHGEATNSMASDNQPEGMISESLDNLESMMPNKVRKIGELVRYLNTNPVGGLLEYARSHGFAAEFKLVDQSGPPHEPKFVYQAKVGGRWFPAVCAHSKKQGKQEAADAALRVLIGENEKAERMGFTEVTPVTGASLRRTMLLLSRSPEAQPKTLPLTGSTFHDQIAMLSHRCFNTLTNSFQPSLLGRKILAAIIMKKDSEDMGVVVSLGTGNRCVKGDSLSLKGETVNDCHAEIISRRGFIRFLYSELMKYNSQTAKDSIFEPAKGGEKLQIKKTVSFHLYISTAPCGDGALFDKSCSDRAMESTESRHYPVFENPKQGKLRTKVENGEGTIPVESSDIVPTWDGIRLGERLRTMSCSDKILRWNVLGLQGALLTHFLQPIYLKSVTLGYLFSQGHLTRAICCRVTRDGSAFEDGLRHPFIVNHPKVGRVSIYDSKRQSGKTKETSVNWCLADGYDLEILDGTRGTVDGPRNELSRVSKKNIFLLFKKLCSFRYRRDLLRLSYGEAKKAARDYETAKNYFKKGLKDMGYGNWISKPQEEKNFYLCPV
UniProt Q6RW13: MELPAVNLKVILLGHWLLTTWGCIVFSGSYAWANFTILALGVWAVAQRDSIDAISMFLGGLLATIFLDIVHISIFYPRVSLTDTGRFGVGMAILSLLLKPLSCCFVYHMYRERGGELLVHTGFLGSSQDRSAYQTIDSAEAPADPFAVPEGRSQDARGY
UniProt P02771: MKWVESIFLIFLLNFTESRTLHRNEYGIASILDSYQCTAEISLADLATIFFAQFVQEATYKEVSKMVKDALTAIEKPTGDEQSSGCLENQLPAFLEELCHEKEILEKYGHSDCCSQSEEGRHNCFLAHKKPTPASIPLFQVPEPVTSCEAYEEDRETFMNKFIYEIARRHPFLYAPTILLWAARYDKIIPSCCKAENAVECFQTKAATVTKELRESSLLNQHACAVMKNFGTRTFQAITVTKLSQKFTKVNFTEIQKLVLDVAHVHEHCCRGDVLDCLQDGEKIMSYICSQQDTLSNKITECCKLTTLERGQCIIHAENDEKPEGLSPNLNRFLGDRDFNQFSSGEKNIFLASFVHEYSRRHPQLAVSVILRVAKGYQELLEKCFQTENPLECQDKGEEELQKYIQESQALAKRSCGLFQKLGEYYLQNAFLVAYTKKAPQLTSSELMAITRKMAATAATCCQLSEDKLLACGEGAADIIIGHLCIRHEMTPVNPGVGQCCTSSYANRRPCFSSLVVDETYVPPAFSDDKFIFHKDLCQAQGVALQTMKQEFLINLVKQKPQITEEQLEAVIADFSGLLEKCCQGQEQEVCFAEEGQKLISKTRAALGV
UniProt Q9Y4W6: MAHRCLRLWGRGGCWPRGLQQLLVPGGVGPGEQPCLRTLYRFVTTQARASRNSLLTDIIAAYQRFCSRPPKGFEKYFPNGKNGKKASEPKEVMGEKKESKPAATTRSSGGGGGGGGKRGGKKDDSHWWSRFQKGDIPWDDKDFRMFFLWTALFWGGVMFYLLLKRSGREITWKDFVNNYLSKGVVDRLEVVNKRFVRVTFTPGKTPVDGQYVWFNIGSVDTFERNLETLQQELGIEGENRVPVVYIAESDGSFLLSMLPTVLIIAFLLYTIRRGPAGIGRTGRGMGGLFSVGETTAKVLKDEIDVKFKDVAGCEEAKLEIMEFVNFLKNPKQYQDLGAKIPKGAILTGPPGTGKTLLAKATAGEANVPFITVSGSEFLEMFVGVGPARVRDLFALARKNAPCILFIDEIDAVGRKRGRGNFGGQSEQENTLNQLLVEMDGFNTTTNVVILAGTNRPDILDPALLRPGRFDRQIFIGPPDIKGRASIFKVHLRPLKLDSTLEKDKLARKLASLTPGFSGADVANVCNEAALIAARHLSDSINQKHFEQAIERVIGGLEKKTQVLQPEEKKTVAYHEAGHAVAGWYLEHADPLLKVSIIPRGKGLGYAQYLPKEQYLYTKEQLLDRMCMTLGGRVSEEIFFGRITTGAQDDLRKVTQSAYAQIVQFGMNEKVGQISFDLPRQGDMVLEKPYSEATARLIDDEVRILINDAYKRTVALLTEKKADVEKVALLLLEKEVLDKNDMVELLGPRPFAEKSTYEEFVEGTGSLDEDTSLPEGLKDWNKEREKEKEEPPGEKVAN
UniProt Q7Z591: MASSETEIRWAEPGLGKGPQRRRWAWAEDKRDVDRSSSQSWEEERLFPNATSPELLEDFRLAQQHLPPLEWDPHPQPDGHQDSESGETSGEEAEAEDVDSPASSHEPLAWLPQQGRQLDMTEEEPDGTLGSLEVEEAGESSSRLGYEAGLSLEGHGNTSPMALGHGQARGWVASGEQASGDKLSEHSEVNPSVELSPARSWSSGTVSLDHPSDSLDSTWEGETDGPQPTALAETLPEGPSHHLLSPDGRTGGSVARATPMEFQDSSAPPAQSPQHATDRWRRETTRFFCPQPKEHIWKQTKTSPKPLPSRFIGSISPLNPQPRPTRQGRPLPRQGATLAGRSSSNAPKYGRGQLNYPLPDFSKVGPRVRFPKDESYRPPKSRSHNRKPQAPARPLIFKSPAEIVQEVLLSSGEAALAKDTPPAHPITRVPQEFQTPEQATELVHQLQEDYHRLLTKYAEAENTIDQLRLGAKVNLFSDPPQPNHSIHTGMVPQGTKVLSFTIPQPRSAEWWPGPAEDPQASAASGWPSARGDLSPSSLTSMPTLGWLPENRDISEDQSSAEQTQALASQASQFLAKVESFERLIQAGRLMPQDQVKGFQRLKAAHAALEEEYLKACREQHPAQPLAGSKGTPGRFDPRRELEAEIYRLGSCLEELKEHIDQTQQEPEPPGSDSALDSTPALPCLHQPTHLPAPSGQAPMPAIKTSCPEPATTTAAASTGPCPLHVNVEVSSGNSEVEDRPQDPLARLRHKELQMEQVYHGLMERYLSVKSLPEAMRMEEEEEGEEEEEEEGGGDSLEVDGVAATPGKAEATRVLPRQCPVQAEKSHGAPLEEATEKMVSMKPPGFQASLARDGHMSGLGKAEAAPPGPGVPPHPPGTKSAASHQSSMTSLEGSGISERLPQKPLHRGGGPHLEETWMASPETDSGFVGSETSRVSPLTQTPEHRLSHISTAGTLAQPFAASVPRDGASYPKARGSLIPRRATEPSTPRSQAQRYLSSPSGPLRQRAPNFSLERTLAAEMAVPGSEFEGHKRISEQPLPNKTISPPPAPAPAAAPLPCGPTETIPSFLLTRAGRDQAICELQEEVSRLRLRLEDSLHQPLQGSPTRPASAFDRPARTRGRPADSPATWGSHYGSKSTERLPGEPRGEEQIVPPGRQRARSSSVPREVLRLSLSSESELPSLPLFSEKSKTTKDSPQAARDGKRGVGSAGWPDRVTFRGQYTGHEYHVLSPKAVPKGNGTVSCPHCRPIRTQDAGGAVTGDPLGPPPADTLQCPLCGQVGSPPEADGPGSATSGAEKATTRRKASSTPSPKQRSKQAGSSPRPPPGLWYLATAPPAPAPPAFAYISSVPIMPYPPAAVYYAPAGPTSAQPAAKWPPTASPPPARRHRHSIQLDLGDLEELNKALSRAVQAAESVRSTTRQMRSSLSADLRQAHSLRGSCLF

Tests used:
Test in all cases: log2 fold change, soluble protein after heating vs DMSO (PISA); higher = thermal stabilisation; K562 lysate, 10 uM; active = over 0.2 and 3.5 SD of the protein, either way, in both replicates (recomputed)
vemurafenib = compound: CCCS(=O)(=O)Nc1ccc(F)c(C(=O)c2c[nH]c3ncc(-c4ccc(Cl)cc4)cc23)c1F [vemurafenib]
Procedure, shortened: (§1)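 Soluble protein was defined as the supernatant remaining after 21,000xg for 90 min, following pooling of heated aliquots and adjustment to 0.5% NP-40 at 4°C. Before that, crude K562 extract at 1 mg/mL protein in PBS pH 7.4 with 1 mM MgCl2 was treated with 10 μM compound for 30 min and heated for 3 min across 48°C-58°C. Quantification used TMTpro 16plex LC-MS/MS with channel sums equalised, and values are log-two fold changes in thermal stability relative to solvent controls from duplicates.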

[1] = compound: CCCS(=O)(=O)Nc1ccc(F)c(C(=O)c2c[nH]c3ncc(Cl)cc23)c1F
Procedure, shortened: as §1

barasertib = compound: CCN(CCCOc1ccc2c(Nc3cc(CC(=O)Nc4cccc(F)c4)[nH]n3)ncnc2c1)CCOP(=O)(O)O [barasertib]
Procedure, shortened: as §1

[2] = compound: CC[C@@H]1C(=O)N(C)c2cnc(Nc3ccc(C(=O)NC4CCN(C)CC4)cc3OC)nc2N1C1CCCC1
Procedure, shortened: as §1

volasertib = compound: CC[C@@H]1C(=O)N(C)c2cnc(Nc3ccc(C(=O)N[C@H]4CC[C@H](N5CCN(CC6CC6)CC5)CC4)cc3OC)nc2N1C(C)C [volasertib]
Procedure, shortened: as §1

[3] = compound: CCn1c(C(=O)N(C2CC2)C2CC2)cc2c3c(ncn3C)c(Nc3cc(C)n(C)n3)nc21
Procedure, shortened: as §1

[4] = compound: CCn1cc(-c2ccnc3[nH]c(-c4cccc(CN(C)C)c4)cc23)c(-c2ccc(NC(=O)N(C)C)cc2)n1
Procedure, shortened: as §1

[5] = compound: CN1CCC(CNc2ccc3ncc(-c4cccc(OC(F)(F)F)c4)n3n2)CC1
Procedure, shortened: as §1

saracatinib = compound: CN1CCN(CCOc2cc(OC3CCOCC3)c3c(Nc4c(Cl)ccc5c4OCO5)ncnc3c2)CC1 [saracatinib]
Procedure, shortened: as §1

sotrastaurin = compound: CN1CCN(c2nc(C3=C(c4c[nH]c5ccccc45)C(=O)NC3=O)c3ccccc3n2)CC1 [sotrastaurin]
Procedure, shortened: as §1

alvocidib = compound: CN1CC[C@H](c2c(O)cc(O)c3c(=O)cc(-c4ccccc4Cl)oc23)[C@H](O)C1 [alvocidib]
Procedure, shortened: as §1

Tubastatin A = compound: CN1CCc2c(c3ccccc3n2Cc2ccc(C(=O)NO)cc2)C1 [Tubastatin A]
Procedure, shortened: as §1

[6] = compound: CNC(=O)C1=CC=CC=C1NC2=NC(=NC=C2Cl)NC3=C(C=C(C=C3)N4CCOCC4)OC
Procedure, shortened: as §1

defactinib = compound: CNC(=O)c1ccc(Nc2ncc(C(F)(F)F)c(NCc3nccnc3N(C)S(C)(=O)=O)n2)cc1 [defactinib]
Procedure, shortened: as §1

[7] = compound: CNc1nc(-c2ccc3c(N)n[nH]c3c2)cc(N2C[C@@H](C(=O)NC3CCCCC3)CC[C@H]2C)n1
Procedure, shortened: as §1

encorafenib = compound: COC(=O)N[C@@H](C)CNc1nccc(-c2cn(C(C)C)nc2-c2cc(Cl)cc(NS(C)(=O)=O)c2F)n1 [encorafenib]
Procedure, shortened: as §1

[8] = compound: COC(=O)[C@H](CCSC)NC(=O)C1=C(C=C(C=C1)NC[C@H](CS)N)C2=CC=CC=C2
Procedure, shortened: as §1

alisertib = compound: COc1cc(Nc2ncc3c(n2)-c2ccc(Cl)cc2C(c2c(F)cccc2OC)=NC3)ccc1C(=O)O [alisertib]
Procedure, shortened: as §1

[9] = compound: COc1cc2nc(-c3cc(F)ccc3O)nc(N[C@@H]3CNC[C@H]3C(C)(C)O)c2cc1OC
Procedure, shortened: as §1

gefitinib = compound: COc1cc2ncnc(Nc3ccc(F)c(Cl)c3)c2cc1OCCCN1CCOCC1 [gefitinib]
Procedure, shortened: as §1

Row | Target | log2 fold change (vemurafenib) | log2 fold change [1] | log2 fold change (barasertib) | log2 fold change [2] | log2 fold change (volasertib) | log2 fold change [3] | log2 fold change [4] | log2 fold change [5] | log2 fold change (saracatinib) | log2 fold change (sotrastaurin) | log2 fold change (alvocidib) | log2 fold change (Tubastatin A) | log2 fold change [6] | log2 fold change (defactinib) | log2 fold change [7] | log2 fold change (encorafenib) | log2 fold change [8] | log2 fold change (alisertib) | log2 fold change [9] | log2 fold change (gefitinib)
1 | ADAMTS5 (UniProt Q9UNA0) | inactive: 0.063 | inactive: 0.047 | inactive: 0.038 | inactive: 0.066 | inactive: 0.038 | inactive: -0.15 | active: -0.939 | inactive: 0.292 | inactive: 0.083 | inactive: -0.045 | inactive: -0.33 | inactive: 0.149 | inactive: 0.105 | inactive: -0.052 | inactive: 0.278 | inactive: -0.134 | inactive: -0.012 | inactive: 0.073 | inactive: 0.109 | inactive: -0.093
2 | AGFG1 isoform 4 (UniProt P52594) | inactive: -0.01 | inactive: 0.003 | inactive: -0.018 | inactive: 0.032 | inactive: 0.026 | inactive: 0.01 | inactive: -0.02 | inactive: 0.077 | inactive: -0.006 | inactive: -0.045 | inactive: -0.017 | inactive: 0.03 | inactive: -0.024 | inactive: 0.035 | inactive: 0.032 | inactive: 0.041 | inactive: -0.022 | inactive: -0.017 | inactive: 0.004 | inactive: -0.038
3 | ADAR isoform 4 (UniProt P55265) | inactive: 0.077 | inactive: 0.051 | inactive: 0.061 | inactive: 0.011 | inactive: 0.003 | inactive: 0.025 | inactive: -0.001 | inactive: -0.049 | inactive: 0.04 | inactive: 0.032 | inactive: -0.004 | inactive: -0.167 | inactive: 0.012 | inactive: 0.054 | inactive: -0.001 | inactive: 0.052 | inactive: -0.041 | inactive: 0.045 | inactive: 0.013 | inactive: 0.02
4 | AGTRAP (UniProt Q6RW13) | inactive: 0.038 | inactive: 0.039 | inactive: 0.086 | inactive: -0.001 | inactive: 0.007 | inactive: -0.049 | inactive: -0.205 | inactive: 0.092 | inactive: 0.06 | inactive: 0.043 | inactive: -0.079 | inactive: -0.06 | inactive: -0.03 | inactive: -0.137 | inactive: 0.109 | inactive: 0.075 | inactive: -0.087 | inactive: 0.032 | inactive: -0.019 | inactive: 0.045
5 | AHNAK (UniProt Q09666) | inactive: -0.026 | inactive: 0.003 | inactive: 0.01 | inactive: 0.079 | inactive: 0.046 | inactive: -0.028 | inactive: 0.037 | inactive: 0.039 | inactive: 0.011 | inactive: -0.003 | inactive: -0.02 | inactive: 0.064 | inactive: 0.012 | inactive: -0.007 | inactive: 0.058 | inactive: 0 | inactive: -0.03 | inactive: 0.005 | inactive: 0.026 | inactive: -0.053
6 | AFP (UniProt P02771) | inactive: 0.181 | inactive: 0.062 | inactive: -0.052 | inactive: 0.002 | inactive: -0.048 | inactive: 0.016 | inactive: 0.132 | inactive: -0.095 | inactive: 0.039 | inactive: 0.003 | inactive: 0.033 | inactive: 0.016 | inactive: 0.024 | inactive: 0.006 | inactive: 0.035 | inactive: -0.005 | inactive: -0.014 | inactive: -0.002 | inactive: -0.045 | inactive: 0.032
7 | AFG3L2 (UniProt Q9Y4W6) | inactive: -0.022 | inactive: 0.012 | inactive: 0.069 | inactive: -0.03 | inactive: -0.011 | inactive: 0.022 | inactive: 0.063 | inactive: -0.049 | inactive: 0.026 | inactive: -0.013 | inactive: 0.049 | inactive: 0.089 | inactive: -0.029 | inactive: 0.023 | inactive: -0.085 | inactive: -0.007 | inactive: 0.059 | inactive: 0.057 | inactive: -0.025 | inactive: -0.008
8 | AKNA (UniProt Q7Z591) | inactive: -0.176 | inactive: -0.122 | inactive: 0.07 | inactive: -0.134 | inactive: -0.149 | inactive: 0.01 | inactive: 0.035 | inactive: -0.312 | inactive: -0.004 | inactive: -0.037 | inactive: -0.099 | inactive: -0.146 | inactive: 0.219 | inactive: 0.098 | inactive: 0.016 | inactive: 0.127 | inactive: 0.187 | inactive: 0.011 | inactive: 0.057 | inactive: 0.104
